One molecule from doi:10.1101/2020.07.27.219501 can be followed below.

Protein sequences, listed by entry. Tags and fused reporters are not part of them. Lines headed by an entry give the natural chain unless they say otherwise; changes in a name come on top.
UniProt P61006: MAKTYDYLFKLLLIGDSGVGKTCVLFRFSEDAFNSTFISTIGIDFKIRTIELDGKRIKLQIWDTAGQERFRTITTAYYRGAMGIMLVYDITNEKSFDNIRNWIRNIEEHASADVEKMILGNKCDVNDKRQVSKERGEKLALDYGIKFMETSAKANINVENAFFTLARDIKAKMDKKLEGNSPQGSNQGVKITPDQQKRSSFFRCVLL

One assay has as its target 3xFLAG-Rab8a WT (UniProt P61006). As to the kind of experiment: co-IP.
The target in another assay is 3xFLAG-Rab8a T72A (UniProt P61006). Description: co-IP.

Results are given in words; binding and its absence hold for the method and conditions named. Binding seen in cells or lysates may run through a third protein. Some entries that bind do so weakly or less than the wild type.

B1: Rabin8 (endogenous) (protein, UniProt Q96QF0 1-476)
chain: MGLKKMKGLSYDEAFAMANDPLEGFHEVNLASPTSPDLLGVYESGTQEQTTSPSVIYRPHPSALSSVPIQANALDVSELPTQPVYSSPRRLNCAEISSISFHVTDPAPCSTSGVTAGLTKLTTRKDNYNAEREFLQGATITEACDGSDDIFGLSTDSLSRLRSPSVLEVREKGYERLKEELAKAQRELKLKDEECERLSKVRDQLGQELEELTASLFEEAHKMVREANIKQATAEKQLKEAQGKIDVLQAEVAALKTLVLSSSPTSPTQEPLPGGKTPFKKGHTRNKSTSSAMSGSHQDLSVIQPIVKDCKEADLSLYNEFRLWKDEPTMDRTCPFLDKIYQEDIFPCLTFSKSELASAVLEAVENNTLSIEPVGLQPIRFVKASAVECGGPKKCALTGQSKSCKHRIKLGDSSNYYYISPFCRYRITSVCNFFTYIRYIQQGLVKQQDVDQMFWEVMQLRKEMSLAKLGYFKEEL
Consider B1, for which the binding result with 3xFLAG-Rab8a WT and with 3xFLAG-Rab8a T72A was “binds” throughout.
